Broadly, the AC50 is the concentration giving half of the maximal activity seen.

Some of the results follow. Further columns of the screen follow, without active or inactive calls. The list favours compounds with an active or inconclusive main result. Potencies come from curve fits of mixed quality, noted in brackets.

Here are results for 54 compounds from PubChem BioAssay AID1487 (National Center for Advancing Translational Sciences (NCATS), 2009).

This test is described as follows: qHTS Assay for Modulators of Lamin A Splicing. The settings on record: HeLa LMNA splicing GFP/RFP minigene ratio, 48 h. The procedure, abridged:
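S3 HeLa cells stably expressing lamin A-EGFP splicing minigene plus DsRed2, 600 cells/well, 48 h compound exposure at 37C. Laser-scanning cytometry; analysed as GFP (500-530 nm)/RFP (575-640 nm) total intensity ratio; 0.5% DMSO vehicle.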
For orientation: In qHTS, concentration-response curves come from the screen itself.

[1] abbreviates: measured here: GFP splicing reporter channel.
Setting [2] is: measured here: RFP viability control channel.

With `CN(C)C(=O)c1ccc(-c2cc(Nc3ccccc3)ncn2)cc1`, the AC50 under setting [1] was 17.8 µM [falling, partial curve].

For `COC(=O)c1ccc(OCCOCCOc2cccc3ccc(C)nc23)cc1`, the AC50 reads like this: under setting [1], 8.91 µM [rising, single point]; under setting [2], 11.2 µM [rising, single point].

`O=C(O)c1ccc2c(c1)C(=O)N(NC(=O)c1ccc(O)cc1)C2=O`: the AC50 runs as follows: under setting [1], 0.0224 µM [falling, full curve]; under setting [2], 0.0794 µM [falling, full curve, poor fit]. Turning to `CCN(Cc1ccccc1)S(=O)(=O)c1cc(C(=O)NC(C)C2CC3CCC2C3)ccc1OC` (stereo unspecified), the AC50 under setting [2] was 15.8 µM [rising, single point]. On to `Oc1cccc(Nc2ncnc3sc4c(c23)CCCC4)c1`, for which the AC50 under setting [1] is 10 µM [falling, partial curve]. `CC[C@]1([C@H]2O[C@@H]([C@@H]3O[C@](O)(CO)[C@@H](C)C[C@H]3C)C[C@H]2C)CC[C@@H]([C@]2(C)CC[C@@]3(C[C@@H](O)[C@@H](C)[C@@H]([C@H](C)[C@H](OC)[C@H](C)C(=O)O)O3)O2)O1`: the AC50 is, setting by setting: under setting [1], 0.447 µM [falling, full curve, poor fit]; under setting [2], 0.447 µM [falling, full curve, poor fit]. For the compound `Cc1oc(-c2ccc(Cl)cc2)nc1CSCC(=O)NCCCN1CCOCC1`, the AC50 is, setting by setting: under setting [1], 12.6 µM [rising, partial curve]; under setting [2], 12.6 µM [rising, partial curve]. For `CCc1c(C)nc2ncnn2c1N1CCC(C(=O)Nc2ccccc2)CC1`, the AC50 under setting [1] is 31.6 µM [rising, single point] and the AC50 under setting [2] was 35.5 µM [rising, single point]. For the compound `CCOC(=O)c1ccc(CC(=O)c2ccc(O)cc2O)o1`, the concentration at half-maximal activity (AC50) under setting [2] is 35.5 µM [rising, single point]. Consider `CCc1ccccc1NC(=O)N1CCC(NC(=O)C(Cc2ccccc2)NC(C)=O)CC1` (stereo unspecified), for which the AC50 under setting [1] is 11.2 µM [rising, partial curve]. Turning to `O=C(CCc1ccc(O)cc1)c1c(O)cc(O)cc1O`, the AC50 under setting [1] is 25.1 µM [falling, partial curve, poor fit] and the AC50 under setting [2] was 0.00501 µM [falling, full curve, poor fit]. With `Cc1nc(SCC(=O)c2cccs2)c2oc3ccccc3c2n1`, the AC50 under setting [2] was 31.6 µM [rising, single point].

Take `COc1ccc(NC(=O)C(C)SCc2ccccc2)cc1OC` (stereo unspecified): the AC50 under setting [2] was 35.5 µM [rising, single point].

`COc1ccc(N=Cc2c(O)n(-c3cccc(C)n3)c(=O)c3ccccc23)cc1`: the half-maximal activity concentration (AC50) under setting [1] was 28.2 µM [rising, single point].

`O=C(CSc1nc(=O)n(Cc2ccco2)c2c1CCC2)NCc1ccc(F)cc1`: the AC50 by setting is: under setting [1], 11.2 µM [rising, partial curve]; under setting [2], 15.8 µM [rising, single point].

Take `O=C(Nc1ccc(N=Nc2ccccc2)c(NC(=O)C2CCCO2)c1)C1CCCO1` (stereo unspecified): under setting [2], the concentration at half-maximal activity (AC50) was 10 µM [rising, partial curve].

As for `COc1cccc(C2=CC(c3ccc(N(C)C)cc3)n3nnnc3N2)c1` (stereo unspecified), the AC50 is 11.2 µM [rising, partial curve] under setting [1] and 15.8 µM [rising, partial curve] under setting [2]. Regarding `CCOC(C)=O`, the AC50 under setting [1] was 0.002 µM [rising, full curve, poor fit] and the AC50 under setting [2] is 0.141 µM [rising, full curve, poor fit]. For `Fc1ccc(F)c(C2=NNC(=NCC3CCCO3)SC2)c1` (stereo unspecified), under setting [2], the AC50 was 35.5 µM [rising, single point]. As for `COc1cccc(-c2nc(NCc3ccc(OC)cc3OC)c3ccccc3n2)c1`, the AC50 under setting [1] is 12.6 µM [falling, single point]. With `O=C(NC1CC(=O)N(c2ccc(Cl)cc2)C1)c1cccs1` (stereo unspecified), the AC50 under setting [2] is 0.0251 µM [falling, full curve, poor fit].

Turning to `O=C(NC1(C(F)(F)F)NC(=O)N(C2CCCCC2)C1=O)c1ccco1` (stereo unspecified), the AC50 under setting [1] was 0.2 µM [rising, full curve, poor fit].

For the compound `CCCCn1c(=S)[nH]c2ccccc2c1=O`, the AC50 under setting [1] was 0.158 µM [rising, partial curve, poor fit]. On to `N#CCCn1c(=O)c(-c2ccc(Cl)cc2)nc2cnc(N3CCNCC3)nc21`, for which the AC50 is, setting by setting: under setting [1], 22.4 µM [falling, single point]; under setting [2], 15.8 µM [falling, partial curve]. Regarding `O=c1[nH]c2cc([N+](=O)[O-])c([N+](=O)[O-])cc2[nH]c1=O`, the AC50 is, setting by setting: under setting [1], 5.62 µM [falling, partial curve, poor fit]; under setting [2], 0.0316 µM [rising, partial curve].

In the case of `CCN1C(=S)SC(=O)C1=C1C=C(C)N(Cc2ccco2)C(C)=C1`, the AC50 runs as follows: under setting [1], 20 µM [rising, partial curve, poor fit]; under setting [2], 14.1 µM [rising, partial curve]. In the case of `O=C(c1ccccc1F)N1CCN(S(=O)(=O)c2ccc3c(c2)OCCO3)CC1`, the AC50 under setting [2] was 15.8 µM [rising, partial curve].

Consider `CC(C)CC(C(=O)NC1CCCC1)N(Cc1ccc2c(c1)OCO2)C(=O)c1snc(C(N)=O)c1N` (stereo unspecified), for which the AC50 is, setting by setting: under setting [1], 12.6 µM [rising, partial curve]; under setting [2], 15.8 µM [rising, single point]. With `CCOc1ccc(S(=O)(=O)NC(C)(C)C)cc1-c1nc2c(C(C)(C)C)nn(C)c2c(=O)[nH]1`, the AC50 runs as follows: under setting [1], 31.6 µM [falling, single point]; under setting [2], 25.1 µM [falling, single point].

For the compound `O=S(=O)(c1ccc(-c2csc(Nc3ccc(F)cc3)n2)cc1)N1CCCC1`, the concentration at half-maximal activity (AC50) is 1.58 µM [rising, full curve, poor fit] under setting [1] and 5.62 µM [rising, partial curve] under setting [2].

As for `CN(NC(=O)c1ccccc1)c1ncc(C(F)(F)F)cc1Cl`, under setting [2], the AC50 was 0.00398 µM [falling, full curve, poor fit]. Still for that read-out and setting: as for `Clc1ccc(OCc2nn3c(-c4ccco4)nnc3s2)cc1`, the figure is 17.8 µM [rising, single point]. As to `Cc1ccc2c(=O)c(C(=O)c3ccccc3)cn(CC(=O)Nc3ccccc3)c2n1`, under setting [1], the AC50 was 0.00316 µM [rising, full curve, poor fit]. As for `O=C(c1ccccc1)C(O)c1ccccc1` (stereo unspecified), the AC50 under setting [2] was 12.6 µM [rising, single point]. `CCOC(=O)N1CCN(S(=O)(=O)c2ccc(F)c(C(=O)Nc3ccc(C)c(Cl)c3)c2)CC1`: the AC50 is, setting by setting: under setting [1], 17.8 µM [rising, single point]; under setting [2], 35.5 µM [rising, single point]. With `COc1ccccc1NC(=O)/C(C#N)=C/C=C/c1ccco1`, the AC50 under setting [2] was 2 µM [rising, full curve, poor fit]. For the compound `CCOC(=O)C(Cc1c[nH]c2ccccc12)NC(=O)COc1ccc(Cl)cc1` (stereo unspecified), the AC50 is 20 µM [falling, single point] under setting [1] and 0.447 µM [falling, partial curve, poor fit] under setting [2]. In the case of `COCCN(CCOC)C(=O)c1cc2c(=O)n3ccccc3nc2n1C`, the half-maximal activity concentration (AC50) under setting [1] is 0.0224 µM [rising, full curve]. As to `COc1cc(C2NC(=O)NC(C)=C2C(=O)OCC2CCCO2)cc(OC)c1OC` (stereo unspecified), under setting [2], the AC50 is 0.00501 µM [falling, full curve, poor fit]. On to `Cc1[nH]c2ccccc2c1CCN(Cc1cccnc1)C(=S)Nc1ccc(F)cc1`, for which, under setting [1], the AC50 is 1.26 µM [rising, single point]. Turning to `Cc1ccc(NC(=S)NC(NC(=O)c2ccccc2)C(Cl)(Cl)Cl)c(C)c1` (stereo unspecified), the AC50 under setting [2] was 31.6 µM [rising, single point].

`O=C(/C=C/c1ccc(S(=O)(=O)N2CCOCC2)cc1)NCc1ccccc1Cl`: the AC50 under setting [2] was 20 µM [rising, single point]. Turning to `O=c1cc(-c2ccc(O)cc2)oc2ccc(O)cc12`, the AC50 under setting [1] was 3.16 µM [rising, partial curve, poor fit] and the AC50 under setting [2] was 3.16 µM [rising, single point].

Take `COc1ccc(C2CC(=O)c3cnc(N4CCN(Cc5ccccc5)CC4)nc3C2)cc1` (stereo unspecified): the AC50 under setting [2] was 31.6 µM [rising, single point]. Take `O=C(NCCCN1CCCCC1)c1cc(Sc2ccc(Cl)cc2)nc2ccccc12`: the AC50 under setting [1] is 0.00316 µM [falling, full curve, poor fit]. With `Cc1ccc(S(=O)(=O)N2CCC(C(=O)N[C@H](C(=O)NCc3ccco3)C(C)C)CC2)cc1`, the AC50 under setting [2] was 4.47 µM [falling, partial curve, poor fit]. Regarding `Cc1c(C#N)c2ccccc2n1CC(=O)N1CCCC1`, under setting [2], the AC50 was 35.5 µM [rising, single point]. Consider `Oc1ccccc1/C=C/c1noc(-c2ccccc2O)n1`, for which the AC50 runs as follows: under setting [1], 7.94 µM [falling, partial curve]; under setting [2], 3.98 µM [falling, full curve]. On to `CC(C)c1ccc(/C=N\NC(=O)c2ccc(Cn3cccn3)o2)cc1`, for which, under setting [2], the AC50 was 15.8 µM [rising, single point]. Turning to `CC(=O)N1CCC2(CC1)OC(=O)C(C)=C2C(=O)Nc1ccccc1C(F)(F)F`, the AC50 by setting is: under setting [1], 0.0398 µM [falling, full curve]; under setting [2], 0.126 µM [falling, partial curve]. On to `CCOC(=O)C1CCN(C(=O)Cn2ncc3c([nH]c4ccc(C)cc43)c2=O)CC1`, for which the half-maximal activity concentration (AC50) under setting [1] is 11.2 µM [rising, partial curve].

On to `Cc1cc(C)n(-c2ccc(C(=O)Nc3nnc(C4CC4)s3)cc2)n1`, for which the AC50 under setting [2] is 0.112 µM [rising, full curve, poor fit]. Turning to `CC(S)C(=O)NCC(=O)O` (stereo unspecified), the AC50 reads like this: under setting [1], 0.891 µM [falling, single point]; under setting [2], 35.5 µM [falling, single point].

With `CC(=O)N1CCc2ccc(S(=O)(=O)Nc3ccccc3Cl)cc21`, the half-maximal activity concentration (AC50) under setting [1] was 5.01 µM [falling, partial curve] and the AC50 under setting [2] was 11.2 µM [falling, partial curve, poor fit].
